Experiment in all cases: protein microarray (ProtoArray v5.0), streptavidin-Alexa Fluor 647
Settings in all cases: 3'-biotin; 20 mM Tris (pH 7.5), 5 mM MgCl2, 100 mM KCl, 0.1% Tween-20, A/T-rich and random oligonucleotide blockers; temperature not stated; high values mean tight binding

The chains behind the UniProt entries cited, without tags or fusion partners. Where a name states a change or a piece, a line headed by the entry shows the natural chain unless it says otherwise.
UniProt O00139: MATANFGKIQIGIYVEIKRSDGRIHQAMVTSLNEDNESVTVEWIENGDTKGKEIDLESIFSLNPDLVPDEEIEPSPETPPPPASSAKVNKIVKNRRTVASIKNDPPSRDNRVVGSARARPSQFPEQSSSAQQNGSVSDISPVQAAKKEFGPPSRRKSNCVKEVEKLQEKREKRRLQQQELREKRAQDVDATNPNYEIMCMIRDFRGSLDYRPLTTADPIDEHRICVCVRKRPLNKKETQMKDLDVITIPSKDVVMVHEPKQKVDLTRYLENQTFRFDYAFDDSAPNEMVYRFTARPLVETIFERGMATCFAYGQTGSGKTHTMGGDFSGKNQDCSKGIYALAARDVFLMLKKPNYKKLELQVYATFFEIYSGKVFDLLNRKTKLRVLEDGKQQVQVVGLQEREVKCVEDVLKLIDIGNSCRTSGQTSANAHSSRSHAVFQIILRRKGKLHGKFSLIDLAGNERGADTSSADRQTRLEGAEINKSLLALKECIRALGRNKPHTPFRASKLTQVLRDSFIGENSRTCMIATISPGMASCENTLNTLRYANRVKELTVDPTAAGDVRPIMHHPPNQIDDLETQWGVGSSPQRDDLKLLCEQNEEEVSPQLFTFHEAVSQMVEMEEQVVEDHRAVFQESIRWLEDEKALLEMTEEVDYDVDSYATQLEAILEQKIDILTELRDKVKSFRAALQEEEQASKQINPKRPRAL

In assay [1] the test system is KIAA0562 (human).
Assay [2] has as its system KIAA0652 (human).
The test system of assay [3] is KIAA1143 (human).
For assay [4], the system named is KIAA1576 (human).
Assay [5] deals with KIAA1598 (human).
The subject of assay [6] is KIAA1609 (human).
In assay [7] the test system is KIAA1754 (human).
Assay [8] addresses KIF2A (UniProt O00139).
Assay [9] relates to KIFC3 (human).
The test system of assay [10] is KIR2DL3 (human).

This is one part of the list. For some of these results: Construct or isoform of the protein are uncertain.

Regarding “GGTGACAGGGGTATGGGGAGGGG [G4-2 biotinylated (Ct1)]”, the binding signal is -0.37 z-score in assay [1]; -0.363 z-score in assay [2]; -0.403 z-score in assay [3]; -0.389 z-score in assay [4]; -0.394 z-score in assay [5]; -0.387 z-score in assay [6]. Also, the binding signal in assay [7] was -0.372 z-score; in assay [8] it was 3.13 z-score; in [9] it was -0.388 z-score; in [10] it was -0.379 z-score.

(Values after paper PMC5996148.)
